Data from paper PMC12406481.
Construct, isoform or probe ends are uncertain for at least one entry.

System: GST-MdILR3 (Malus x domestica)
Experiment: EMSA
Conditions: EMSA with purified MdILR3-GST and biotin probes, 24 °C, 30 min, chemiluminescent EMSA kit, salt and pH not stated, recombinant protein, protein details: GST (pGEX-4T), label: biotin

Sequence	binding result (reduced by unlabeled probe)	binding result
GCACATAAGGTGATACACCACGTGTCACTATACAAATGATGA (double strand) [pMdNIA1 G-box probe]	binds	
TCTGCCAGGTGTTGACACGTGTCCTATTTGATGACT (double strand) [pMdNRT2.3 G-box probe]	binds	
AAATTATATTTTTGCCACGTGGCACAAATTTGGCTA (double strand) [pMdNRT2.4 G-box probe]	binds	
GCCTGTCTCCCTGCCCACGTGTCCATTTAAATCTCC / GGAGATTTAAATGGACACGTGGGCAGGGAGACAGG [pMdSWEET12 G-box probe]		binds
